Experimental findings from article PMC9418311 are described below.

By UniProt entry, the sequences of proteins in these tests, tags left out.
UniProt Q96HW7: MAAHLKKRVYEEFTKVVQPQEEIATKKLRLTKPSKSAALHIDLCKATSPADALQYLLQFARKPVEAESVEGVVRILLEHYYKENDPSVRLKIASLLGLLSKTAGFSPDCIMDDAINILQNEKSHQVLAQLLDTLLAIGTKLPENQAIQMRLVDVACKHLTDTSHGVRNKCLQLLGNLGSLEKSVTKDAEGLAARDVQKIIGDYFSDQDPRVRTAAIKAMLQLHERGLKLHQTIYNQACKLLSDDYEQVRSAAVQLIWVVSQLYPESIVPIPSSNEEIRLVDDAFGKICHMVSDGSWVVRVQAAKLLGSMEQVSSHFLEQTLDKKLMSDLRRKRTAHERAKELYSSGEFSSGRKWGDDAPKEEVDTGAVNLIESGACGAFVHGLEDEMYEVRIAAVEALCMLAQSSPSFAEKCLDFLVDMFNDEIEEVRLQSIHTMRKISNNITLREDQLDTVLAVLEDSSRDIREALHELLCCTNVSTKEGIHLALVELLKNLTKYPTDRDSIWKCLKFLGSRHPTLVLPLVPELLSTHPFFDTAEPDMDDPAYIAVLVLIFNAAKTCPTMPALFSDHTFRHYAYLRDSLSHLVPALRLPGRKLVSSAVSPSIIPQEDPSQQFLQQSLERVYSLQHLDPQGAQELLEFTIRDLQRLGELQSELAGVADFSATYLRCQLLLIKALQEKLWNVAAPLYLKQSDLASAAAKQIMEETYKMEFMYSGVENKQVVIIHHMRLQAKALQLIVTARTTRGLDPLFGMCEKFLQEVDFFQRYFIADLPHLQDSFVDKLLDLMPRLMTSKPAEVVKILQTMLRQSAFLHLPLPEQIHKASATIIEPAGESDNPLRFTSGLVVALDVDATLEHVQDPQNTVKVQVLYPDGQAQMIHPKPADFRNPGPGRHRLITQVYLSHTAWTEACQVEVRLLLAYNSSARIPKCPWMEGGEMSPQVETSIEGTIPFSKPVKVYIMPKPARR

For assay [1], the target named is T1, BRCA1-associated ATM activator 1 (BRAT1), endogenous wild type (human (endogenous in U2OS, fibroblasts and LCLs)) (UniProt Q6PJG6).
T1 sequence: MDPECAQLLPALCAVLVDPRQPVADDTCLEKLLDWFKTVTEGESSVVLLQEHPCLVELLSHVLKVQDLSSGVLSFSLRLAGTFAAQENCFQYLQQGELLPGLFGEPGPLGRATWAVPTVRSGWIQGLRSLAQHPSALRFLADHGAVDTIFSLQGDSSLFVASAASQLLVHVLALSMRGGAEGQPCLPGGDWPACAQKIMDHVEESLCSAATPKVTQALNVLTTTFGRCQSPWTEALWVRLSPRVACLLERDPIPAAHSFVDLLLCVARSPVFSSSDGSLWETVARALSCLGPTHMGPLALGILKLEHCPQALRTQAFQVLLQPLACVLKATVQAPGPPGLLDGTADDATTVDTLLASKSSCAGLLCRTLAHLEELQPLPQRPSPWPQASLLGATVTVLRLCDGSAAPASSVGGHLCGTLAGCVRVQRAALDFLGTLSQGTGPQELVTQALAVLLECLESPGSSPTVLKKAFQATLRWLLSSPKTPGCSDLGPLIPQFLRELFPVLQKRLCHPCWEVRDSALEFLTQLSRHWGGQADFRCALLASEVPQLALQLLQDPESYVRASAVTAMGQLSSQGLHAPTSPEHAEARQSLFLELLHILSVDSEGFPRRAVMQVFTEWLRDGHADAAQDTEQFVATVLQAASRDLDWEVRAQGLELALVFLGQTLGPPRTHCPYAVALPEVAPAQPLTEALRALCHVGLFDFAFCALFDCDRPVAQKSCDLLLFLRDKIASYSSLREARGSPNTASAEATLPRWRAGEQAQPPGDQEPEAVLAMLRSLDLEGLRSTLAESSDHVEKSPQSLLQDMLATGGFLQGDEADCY
The assay is described as follows: co-IP; endogenous bait (BRAT1, INTS11 or INTS4) immunoprecipitated with 1 ug antibody overnight at 4 C from U2OS lysate in EBC buffer, protein A/G resin, Western blot; BRAT1-/- cells as control; more input material for INTS1 and INTS4. Background: A western blot detects proteins with antibodies after separation by electrophoresis.

For assay [2], the target named is Integrator complex subunit INTS4, endogenous (human (endogenous in U2OS)) (UniProt Q96HW7). The assay is described as above.

No constants are given. Whether binding was seen depends on the method and setting. Binding seen in cells or lysates may run through a third protein. Some results given as binding are weak or reduced against the parent protein; the word gives no strength.

Regarding “Integrator complex subunit INTS4, endogenous (from UniProt Q96HW7 1-963)”, in assay [1], the binding result is on record as “binds weakly”.

B1: BRCA1-associated ATM activator 1 (BRAT1), endogenous wild type (protein, UniProt Q6PJG6-1 1-821)
chain: MDPECAQLLPALCAVLVDPRQPVADDTCLEKLLDWFKTVTEGESSVVLLQEHPCLVELLSHVLKVQDLSSGVLSFSLRLAGTFAAQENCFQYLQQGELLPGLFGEPGPLGRATWAVPTVRSGWIQGLRSLAQHPSALRFLADHGAVDTIFSLQGDSSLFVASAASQLLVHVLALSMRGGAEGQPCLPGGDWPACAQKIMDHVEESLCSAATPKVTQALNVLTTTFGRCQSPWTEALWVRLSPRVACLLERDPIPAAHSFVDLLLCVARSPVFSSSDGSLWETVARALSCLGPTHMGPLALGILKLEHCPQALRTQAFQVLLQPLACVLKATVQAPGPPGLLDGTADDATTVDTLLASKSSCAGLLCRTLAHLEELQPLPQRPSPWPQASLLGATVTVLRLCDGSAAPASSVGGHLCGTLAGCVRVQRAALDFLGTLSQGTGPQELVTQALAVLLECLESPGSSPTVLKKAFQATLRWLLSSPKTPGCSDLGPLIPQFLRELFPVLQKRLCHPCWEVRDSALEFLTQLSRHWGGQADFRCALLASEVPQLALQLLQDPESYVRASAVTAMGQLSSQGLHAPTSPEHAEARQSLFLELLHILSVDSEGFPRRAVMQVFTEWLRDGHADAAQDTEQFVATVLQAASRDLDWEVRAQGLELALVFLGQTLGPPRTHCPYAVALPEVAPAQPLTEALRALCHVGLFDFAFCALFDCDRPVAQKSCDLLLFLRDKIASYSSLREARGSPNTASAEATLPRWRAGEQAQPPGDQEPEAVLAMLRSLDLEGLRSTLAESSDHVEKSPQSLLQDMLATGGFLQGDEADCY
Take B1: the binding result in assay [2] is “binds weakly”.
